± gives the standard deviation. Only a part is listed here, and it is no random draw. The uncertainty is large for many entries.
System: MILI (PIWIL2) piRISC loaded with piRNA #2 (26 nt)
Experiment: pre-steady-state target cleavage rate (min^-1); MIWI and MILI are mouse PIWI proteins and EfPiwi is from a freshwater sponge; tags in brackets are library labels; higher = faster piRNA-guided slicing of the target
Conditions: guide: piRNA #2 5'p-UUAGGUAACCCAGUAGAUCCAGAGGA; auxiliary factor: 500 nM mouse GTSF1
Outline: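 Cleave-'n-Seq reactions paired 0.1 nM transcribed, DNA-blocked target RNA library with 1 nM active affinity-purified piRISC holding one synthetic guide, plus or minus 500 nM GTSF1 partner protein, in HEPES–potassium acetate buffer at 33 °C for 0–8 or 0–960 min. After sequencing of uncleaved targets and normalisation to depth and weakly complementary targets, the pre-steady-state cleavage rate was taken from a burst-and-steady-state fit. Three trials were pooled, and k3 was capped at 0.0001 min^-1.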

| Sequence | pre-steady-state target cleavage rate |
| --- | --- |
| CUUAAGGAGACCAUCUACUGGGAUACCUUA | 0.000149 ± 0.039 |
| CUUAAGGACUGGAUCUACUGGGAAACCUAA | 0.000965 ± 0.018 |
| CUUAAGCUCUGGAUCUAGUGGGUUUCCUAA | 0.0199 ± 0.0071 |
| CUUAAGGAGACGAUCUGACUGGGUUACCUAA | 0.000476 ± 0.017 |
| CUUAACCUCUGGAUCUUACUGGGUUACCUAA | 0.00199 ± 0.0053 |
| CUUAAGGAGACCAUCUACUCCGUUACCUAA | 0.000172 ± 0.027 |
| CUUAAGGAGACGAUCAACAGGGUUACCUAA | 0.00183 ± 0.0036 |
| CUUAAGGAGACCUAGUACUCGGUUACCUAA | 0.000111 ± 0.038 |
| CUUAAGGAGACGAUCUAAUGGGUUACCUAA | 0.00269 ± 0.0047 |
| CUUAACCUCUGGAUCUACUGCCUUACCUAA | 0.000151 ± 0.025 |
| CUUAAGGAGAGGAUCUACUGGGUUCCCUAA | 0.00159 ± 0.0052 |
| CUUAAGGAGUGGAUCUACUGGGUUUCGUAA | 0.000279 ± 0.022 |
| CUUAAGGAGACGAUCUACUGGUUACCUAA | 0.000538 ± 0.0053 |
| CUUAAGGAGAGCAACUACUGGGUUACCUAA | 0.000758 ± 0.0084 |
| CUUAAGGAGAGGAUCUACUGCGUAACCUAA | 0.00067 ± 0.017 |
| CUUAAGGAGACCUUCUACAGCGUUACCUAA | 0.00054 ± 0.018 |
| CUUAAGGAGACGAUCUCCUGGGUUACCUAA | 0.00331 ± 0.0037 |
| CUUAAGGUCUGGUUCUACUGGCUUACCUAA | 0.00172 ± 0.0083 |
| CUUAAGGACUGGAUCUAGACGGUUACCUAA | 0.00052 ± 0.028 |
| CUUAAGGAGUGGAUCUACUGGGUAAGCUAA | 0.000311 ± 0.03 |

| Sequence | pre-steady-state target cleavage rate |
| --- | --- |
| CUUAAGGAGAGGAUCUGCUGGGUUACCUAA | 0.00355 ± 0.0037 |
| CUUAUCCUCUGGAUCUACUGGGUAUGGAUA [g8:g26:cont:t1A] | 0.000935 ± 0.0091 |
| CUUAAGGUCUGGAUCUACUGGGAUAGCUAA | 0.00099 ± 0.011 |
| CUUAAGGAGACGAUCUACUGAGGUUACCUAA | 0.00223 ± 0.0028 |
| CUUAAGGAGACCUAGUACUGGGAAUCCUAA | 0.000257 ± 0.03 |
| CUUAAGGACUGCAUCUACUGGGUUUCCUAA | 0.00268 ± 0.0081 |
| CUUAAGGAGACGAUCUACUCGGUUAGCUAA | 0.000134 ± 0.04 |
| CUUAAGGAGAGGUCUACUGGGUUACCUAA | 0.00146 ± 0.0056 |
| CUUAAGGAGUGGAUCUAACUGGGUUACCUAA | 0.000351 ± 0.019 |
| CUUAAGGAGACCUAGUACUGGGUUACCCAA | 0.000103 ± 0.048 |
| CUUAAGGAGACCUAGAUGAGGGUGUACCUAA | 0.000208 ± 0.049 |
| CUUAUCCUCUGGAUCUACUGGCUUACGUAA | 0.000328 ± 0.032 |
| CUUAAGGAGACCUUCUAGUGGGUUACCUUA | 0.000415 ± 0.017 |
| CUUAAGGAGACCUUCUACUGGGUUACCUUAA | 0.000443 ± 0.019 |
| CUUAAGGAGACCUUCUACUGGGAUUACCUAA | 0.00145 ± 0.007 |
| CUUAAGGAGACCAUCUACUGGCUAACCUAA | 0.000135 ± 0.027 |
| CUUAAGGAGACCAACUACUGCGUUACCUAA | 0.00072 ± 0.012 |
| CUUAAGCCUCUGGAUCUACUGGGUUACCUAA | 0.146 ± 0.043 |
| CUUAAGGAGUGGAACUACUGGGUUACCUUA | 0.00631 ± 0.0078 |
| CUUAUCCUCUGAGAUCUACUGGGUUACCUAA | 0.106 ± 0.02 |

An excerpt of these results, as tab-separated lines.
Sequence	pre-steady-state target cleavage rate
CUUAUCCUCUGGAUCUACUGGGUAUGGAUA [g8:g26:cont:t1A]	0.000935 ± 0.0091
CUUAAGGAGACGAUCUACUCGGUUAGCUAA	0.000134 ± 0.04
CUUAUCCUCUGGAUCUACUGGCUUACGUAA	0.000328 ± 0.032
CUUAAGGAGACCUUCUACUGGGUUACCUUAA	0.000443 ± 0.019

Following part:

| Sequence | pre-steady-state target cleavage rate |
| --- | --- |
| CUUAAGGAGACGAUCUACACCGUUACCUAA | 0.000665 ± 0.022 |
| CUUAAGGAGUGGAUCUACUGCGUAACCUAA | 0.000878 ± 0.019 |
| CUUAAGGAGACCUUCUACUGGGUUAGCUAA | 0.000783 ± 0.01 |
| CUUAACCUCUGGAUCUACUGGCUUACCUUA | 0.000815 ± 0.0083 |
| CUUAAGGUCUGGAUCUACAGGCUUACCUAA | 0.00108 ± 0.012 |
| CUUAAGGAGACCAUCUACGGGGUUACCUAA | 0.00366 ± 0.0053 |
| CUUAAGGACUGGAUCUACUGGGGUACCUAA | 0.00625 ± 0.0063 |
| CUUAAGGAGACCUACAUACUGGGUUACCUAA | 0.000344 ± 0.025 |
| CUUAAGGAGACCAUCAUACUGGGUUACCUAA | 0.000374 ± 0.029 |
| CUUAAGGAGACCUACUACAGGGUUACCUAA | 0.000133 ± 0.022 |
| CUUAAGGAGACCAUCUACUGGAGUUACCUAA | 0.000335 ± 0.013 |
| CUUAAGGAGACGAUCUACUCCGUUACCUAA | 0.0013 ± 0.0061 |
| CUUAAGGAGAGGAUCUAGUGGGUAACCUAA | 0.000155 ± 0.036 |
| CUUAAGGAGACCUAGUCCUGGGUUACCUAA | 0.000197 ± 0.048 |
| CUUAAGGACAGGAUCUACUGGGUAACCUAA | 0.00647 ± 0.0078 |
| CUUAAGGAGACCAUCUACUGGGUUACCGAA | 0.000382 ± 0.016 |
| CUUAAGGAGAGCAUCUACUGGCUUACCUAA | 0.000931 ± 0.0058 |
| CUUAAGGAGACCUAGAUGACGGUUACGUUA | 0.000563 ± 0.013 |
| CUUAACCACUGGAUCUACUCGGUUACCUAA | 0.000525 ± 0.025 |

Reference: the supplement of paper PMC10338343
